In US20120079613A1 one finds binding data, which are given here for three substances.

Amino acid sequences for entries named in this document (tags omitted). A change or cut given only in a name is not applied to a line headed by its entry.
UniProt Q9R1E0: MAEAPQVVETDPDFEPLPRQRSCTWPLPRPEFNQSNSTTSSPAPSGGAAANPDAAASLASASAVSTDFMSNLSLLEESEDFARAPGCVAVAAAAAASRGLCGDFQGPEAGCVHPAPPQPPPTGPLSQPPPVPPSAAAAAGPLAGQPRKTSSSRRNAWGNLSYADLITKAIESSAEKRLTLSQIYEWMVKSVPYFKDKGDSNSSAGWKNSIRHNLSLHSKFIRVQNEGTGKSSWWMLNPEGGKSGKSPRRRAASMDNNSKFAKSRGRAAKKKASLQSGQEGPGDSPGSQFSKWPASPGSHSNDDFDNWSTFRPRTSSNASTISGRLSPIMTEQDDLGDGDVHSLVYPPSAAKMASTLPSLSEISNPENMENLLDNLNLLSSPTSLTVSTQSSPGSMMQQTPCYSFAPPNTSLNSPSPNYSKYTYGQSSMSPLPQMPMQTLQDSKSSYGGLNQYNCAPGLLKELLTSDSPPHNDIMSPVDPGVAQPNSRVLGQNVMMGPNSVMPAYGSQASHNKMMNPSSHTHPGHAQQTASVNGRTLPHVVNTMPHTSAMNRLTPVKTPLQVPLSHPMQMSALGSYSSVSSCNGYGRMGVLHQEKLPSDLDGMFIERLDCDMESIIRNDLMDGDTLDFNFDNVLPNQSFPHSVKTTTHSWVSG
UniProt Q01147: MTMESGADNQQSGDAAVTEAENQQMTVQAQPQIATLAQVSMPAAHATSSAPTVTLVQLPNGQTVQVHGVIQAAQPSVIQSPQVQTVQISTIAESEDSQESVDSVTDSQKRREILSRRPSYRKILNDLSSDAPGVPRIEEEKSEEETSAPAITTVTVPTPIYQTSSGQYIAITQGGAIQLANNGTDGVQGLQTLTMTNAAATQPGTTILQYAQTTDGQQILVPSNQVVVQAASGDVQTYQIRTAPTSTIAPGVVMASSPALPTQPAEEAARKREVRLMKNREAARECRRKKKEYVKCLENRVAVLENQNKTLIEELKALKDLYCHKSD
UniProt Q810B3: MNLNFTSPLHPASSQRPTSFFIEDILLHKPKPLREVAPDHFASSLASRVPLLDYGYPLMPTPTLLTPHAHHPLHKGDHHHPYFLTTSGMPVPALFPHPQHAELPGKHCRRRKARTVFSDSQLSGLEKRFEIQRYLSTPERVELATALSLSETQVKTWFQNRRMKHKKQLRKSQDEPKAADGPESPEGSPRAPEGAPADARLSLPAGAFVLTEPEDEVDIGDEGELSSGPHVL

These are yes or no findings as the source states them, for the method shown. Some entries that bind do so weakly or less than the wild type.

The target in test [1] is in vitro translated full length FoxO1 protein (mouse) (UniProt Q9R1E0). Description: GST pull down; GST::Bsx on glutathione sepharose with 35S-Met in vitro translated FoxO1, autoradiography.
Test [2] deals with in vitro translated full length CREB protein (mouse) (UniProt Q01147). Put plainly: reciprocal GST pull down; GST::Bsx on glutathione sepharose with 35S-Met in vitro translated CREB, autoradiography.
The target is the same in test [3]. Description: GST pull down; GST::Bsx with 35S-Met in vitro translated CREB.
For test [4] the target is unchanged. Description: reciprocal GST pull down; GST::Bsx with 35S-Met in vitro translated CREB.
In test [5] the target is in vitro translated full length Bsx protein (mouse) (UniProt Q810B3). Put plainly: GST pull down; GST::CREB with 35S-Met in vitro translated Bsx.
Test [6] has the same target. Put plainly: reciprocal GST pull down; GST::CREB with 35S-Met in vitro translated Bsx.
The target is the same in test [7]. Put plainly: reciprocal GST pull down; GST::CREB on glutathione sepharose with 35S-Met in vitro translated Bsx, autoradiography.
Test [8] shares this target. Put plainly: GST pull down; GST::FoxO1 on glutathione sepharose with 35S-Met in vitro translated Bsx, autoradiography.

“GST::Bsx (full length mouse Bsx expressed and purified as GST fusion protein) (from UniProt Q810B3 1-232)”: the binding result in test [1], in test [2], in test [3] and in test [4] was “binds” in each case.
Consider “GST::CREB (full length mouse CREB expressed and purified as GST fusion protein) (from UniProt Q01147 1-327)”, for which the binding entry in test [5], in test [6] and in test [7] was “binds” in each case.
As for “GST::FoxO1 (full length mouse Foxo1 expressed and purified as GST fusion protein) (from UniProt Q9R1E0 1-652)”, the binding result in test [8] was “binds”.
